Test results: PubChem BioAssay AID2685 (National Center for Advancing Translational Sciences (NCATS), 2010)
This is one part of the list. The main result of the screen is listed elsewhere. These columns were measured beside it and carry no call. Compounds called inactive in the main read-out are mostly missing here. The note in brackets gives the kind of curve behind each potency; many fits are weak.

Test: qHTS Assay for Lipid Storage Modulators in Drosophila S3 Cells;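 for cell number change: cells counted by Cell Tracker Red CMTPX staining in the red channel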
Conditions: BODIPY lipid droplet fluorescence, 18-24 h; for cell number change: measured here: cell count max response, cells fed with added oleic acid
Method in brief: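 Laser-scanning cytometry quantifies lipid droplet accumulation (500–530 nm total intensity; droplet/cell object ratio) in oleic acid-fed (400 uM added) Drosophila S3 cells treated with a concentration series. 20 uM Triacsin C defined 100% inhibition.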

[1] = measured here: lipid fluorescence (Fed channel) AC50, cells fed with added oleic acid
[2] = measured here: cell number channel AC50, cells fed with added oleic acid

Compound	AC50 [1]	AC50 [2]	cell number change
O=C(N/N=C/c1ccc(OC(=O)c2ccccc2)cc1)c1cccc(O)c1	5.17 µM [falling, full curve, poor fit]		
Cc1ccc(S(=O)(=O)Cc2ccc(C(=O)N3CCN(c4ccccn4)CC3)o2)cc1	29.1 µM [rising, single point]	0.731 µM [rising, full curve]	
Cc1ccc(NS(=O)(=O)c2ccc(-c3coc(C)n3)cc2)c(Br)c1	29.1 µM [rising, single point]		
COc1cc(OC)c2c(C)cc(=O)oc2c1C(CCN1CCOCC1)c1ccc2c(c1)OCO2 (stereo unspecified)	0.411 µM [rising, full curve, poor fit]		9.58%
CCCOc1ccc(NC(=O)CC2Nc3ccccc3NC2=O)cc1 (stereo unspecified)			19%
COc1ccc(-c2nc(-c3cccc(C)c3)nc(Cl)c2C#N)cc1	0.92 µM [falling, full curve]	0.82 µM [falling, full curve]	-30.5%
CC(Oc1ccc(Cl)cc1Cl)C(=O)NC1CCSC1=O (stereo unspecified)			8.77%
CCc1ccccc1NC(=O)CCCSc1nc2ccccc2s1		18.4 µM [rising, single point]	37.4%
O=C(COC(=O)c1cc([N+](=O)[O-])ccc1N1CCOCC1)Nc1ccc(Cl)cn1			-16.8%
Cc1ccc(OCc2ccc(C(=O)NCC3CCCO3)cc2)cc1C (stereo unspecified)	13 µM [falling, partial curve]		
CCOC(=O)c1ccc(NC(=O)c2nc[nH]c2C(=O)N2CCN(C(=O)OC(C)(C)C)CC2)cc1	3.66 µM [rising, single point]		5.25%
Cc1ccc(S(=O)(=O)Oc2ccc(/C=N/N=C3/NC(=O)C(CC(=O)O)S3)cc2)cc1 (stereo unspecified)		16.4 µM [rising, partial curve]	110%
CC(=O)c1ccc(-c2cccc(-c3nc4ccccn4c3NC3CCCCC3)c2)cc1			12.7%
CCn1c(SCc2nc3scc(-c4ccccc4)c3c(=O)[nH]2)nnc1-c1ccc(Cl)cc1		0.731 µM [falling, full curve, poor fit]	-30.9%
COc1ccc(/C=C(/NC(=O)c2ccco2)C(=O)NCc2ccco2)cc1OC	17.8 µM [falling, partial curve]	14.1 µM [falling, single point]	-30.8%
Cc1ccc(C(=O)OCC(=O)Nc2cc(S(=O)(=O)N3CCOCC3)ccc2C)cc1	1.64 µM [rising, partial curve, poor fit]	6.51 µM [rising, single point]	20.4%
O=C(O)c1cc(=O)c2ccccc2[nH]1	0.00461 µM [falling, full curve, poor fit]		-10%
O=C(NCCC1=CCCCC1)c1ccc(Cl)c([N+](=O)[O-])c1		5.17 µM [rising, single point]	-1.6%
Cc1cccc(NC(=O)CC2C(=O)NCCN2C(=S)Nc2ccccc2)c1 (stereo unspecified)		25.9 µM [rising, single point]	93.7%
C=CCn1c(=S)[nH]c2cc(C(=O)Nc3ccc(F)cc3)ccc2c1=O	23.1 µM [falling, single point]	29.1 µM [rising, single point]	42.7%

Compound	AC50 [1]	AC50 [2]	cell number change
Cc1cccc(C)c1NC(=O)NCc1ccco1	0.291 µM [rising, partial curve, poor fit]		7.52%
CCCc1nnc(NC(=O)CCC(=O)N2CCCCC2CC)s1 (stereo unspecified)			-1.76%
CCN1CCN(Cc2ccc(NC(=O)c3ccc(C)c(NC(=O)N4CCNC4=O)c3)cc2C(F)(F)F)CC1	14.6 µM [rising, partial curve]		
CC(=O)C1C(c2ccc(Cl)cc2)c2c(noc2C)CC1(C)O (stereo unspecified)	29.1 µM [rising, single point]		14.4%
O=C(NC1CCCCC1)C(=S)NCc1ccccc1	18.4 µM [rising, partial curve]		
Cc1ccc(-c2noc(C3CCCN(C(=O)C4CCCCC4)C3)n2)o1 (stereo unspecified)	29.1 µM [rising, single point]	29.1 µM [rising, single point]	101%
COc1ccccc1NC(=O)NC1CCCCCCC1	16.4 µM [rising, single point]		2.02%
CCC(CO)n1c(SCc2cc(=O)oc3cc(C)ccc23)nc2ccccc2c1=O (stereo unspecified)	29.1 µM [rising, single point]		4.68%
O=C(NCCCc1ccccc1)c1ccc([N+](=O)[O-])cc1Cl			-2.81%
Cc1cccc(NC(=S)N(Cc2cccs2)Cc2cc3cc(C)ccc3[nH]c2=O)c1	16.4 µM [falling, single point]	32.6 µM [rising, single point]	58.4%
Cc1cc(C)n(CCCNCC(O)c2ccccc2)n1 (stereo unspecified)			152%
CCc1oc2ccccc2c1C(=O)CCN1CCCCC1	4.11 µM [rising, single point]		-28.7%
COc1ccccc1NC(=O)Nc1ccc(C(N)=O)cc1	29.1 µM [falling, single point]		
COc1ccc(S(=O)(=O)NCc2ccccn2)cc1Br	6.51 µM [rising, single point]		
Cc1ccc(S(=O)(=O)N2CCN(C(=O)Cc3ccc4c(c3)OCCO4)CC2)cc1C		0.731 µM [rising, full curve]	
O=C(c1ccco1)N1CCN(C(c2cccs2)c2sc3ncnn3c2O)CC1 (stereo unspecified)	29.1 µM [rising, single point]	23.1 µM [rising, single point]	42.7%
O=C(N/N=C/c1ccc([N+](=O)[O-])s1)c1ccccc1Br	29.1 µM [falling, single point]		-14.6%
O=C(c1cccc(C(F)(F)F)c1)c1c[nH]c(C(=O)NCCCN2CCOCC2)c1	29.1 µM [rising, partial curve, poor fit]	14.6 µM [rising, partial curve, poor fit]	76.1%
Cc1ccc(NC(=O)COC(=O)c2cc(=O)c3ccccc3o2)cc1F	29.1 µM [rising, single point]		-2.73%

2 entries from above, field by field.
O=C(c1ccco1)N1CCN(C(c2cccs2)c2sc3ncnn3c2O)CC1 (stereo unspecified)
  AC50 [1]: 29.1 µM [rising, single point]
  AC50 [2]: 23.1 µM [rising, single point]
  cell number change: 42.7%
O=C(N/N=C/c1ccc([N+](=O)[O-])s1)c1ccccc1Br
  AC50 [1]: 29.1 µM [falling, single point]
  cell number change: -14.6%
